Laboratory results from the supplement of paper PMC7666118.
Some of the results follow.

The chains behind the UniProt entries cited, without tags or fusion partners. Where a name states a change or a piece, a line headed by the entry shows the natural chain unless it says otherwise.
UniProt Q92466: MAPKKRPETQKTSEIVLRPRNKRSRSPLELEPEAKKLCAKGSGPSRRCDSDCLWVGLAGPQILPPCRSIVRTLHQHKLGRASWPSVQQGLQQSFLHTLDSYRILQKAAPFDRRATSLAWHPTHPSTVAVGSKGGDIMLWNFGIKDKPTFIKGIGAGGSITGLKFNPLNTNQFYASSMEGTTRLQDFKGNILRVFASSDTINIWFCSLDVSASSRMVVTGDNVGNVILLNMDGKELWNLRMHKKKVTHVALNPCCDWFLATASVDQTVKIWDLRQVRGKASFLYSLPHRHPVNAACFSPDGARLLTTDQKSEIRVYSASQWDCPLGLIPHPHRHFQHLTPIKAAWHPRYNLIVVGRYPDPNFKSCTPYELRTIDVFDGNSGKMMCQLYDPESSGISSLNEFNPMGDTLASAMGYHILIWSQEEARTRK
UniProt Q9NR28: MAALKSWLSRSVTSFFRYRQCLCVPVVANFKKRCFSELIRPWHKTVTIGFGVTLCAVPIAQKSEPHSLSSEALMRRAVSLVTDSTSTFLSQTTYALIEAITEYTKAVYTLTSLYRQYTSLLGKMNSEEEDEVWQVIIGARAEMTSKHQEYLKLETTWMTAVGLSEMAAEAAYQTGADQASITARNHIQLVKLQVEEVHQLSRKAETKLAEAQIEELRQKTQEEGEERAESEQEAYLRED
UniProt P10619: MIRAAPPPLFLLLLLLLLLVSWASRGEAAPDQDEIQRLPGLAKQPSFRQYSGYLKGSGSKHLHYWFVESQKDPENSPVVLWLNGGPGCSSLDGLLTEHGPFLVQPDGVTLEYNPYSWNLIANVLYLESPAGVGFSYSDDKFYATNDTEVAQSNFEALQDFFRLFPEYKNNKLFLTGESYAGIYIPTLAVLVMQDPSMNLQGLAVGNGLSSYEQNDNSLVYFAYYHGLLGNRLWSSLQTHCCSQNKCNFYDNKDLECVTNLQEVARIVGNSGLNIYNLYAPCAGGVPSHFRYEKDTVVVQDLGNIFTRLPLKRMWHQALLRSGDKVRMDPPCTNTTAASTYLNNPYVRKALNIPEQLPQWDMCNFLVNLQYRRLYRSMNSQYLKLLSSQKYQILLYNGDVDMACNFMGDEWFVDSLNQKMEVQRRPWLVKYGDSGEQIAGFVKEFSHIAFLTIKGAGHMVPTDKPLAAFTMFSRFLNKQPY
UniProt Q7KZN9: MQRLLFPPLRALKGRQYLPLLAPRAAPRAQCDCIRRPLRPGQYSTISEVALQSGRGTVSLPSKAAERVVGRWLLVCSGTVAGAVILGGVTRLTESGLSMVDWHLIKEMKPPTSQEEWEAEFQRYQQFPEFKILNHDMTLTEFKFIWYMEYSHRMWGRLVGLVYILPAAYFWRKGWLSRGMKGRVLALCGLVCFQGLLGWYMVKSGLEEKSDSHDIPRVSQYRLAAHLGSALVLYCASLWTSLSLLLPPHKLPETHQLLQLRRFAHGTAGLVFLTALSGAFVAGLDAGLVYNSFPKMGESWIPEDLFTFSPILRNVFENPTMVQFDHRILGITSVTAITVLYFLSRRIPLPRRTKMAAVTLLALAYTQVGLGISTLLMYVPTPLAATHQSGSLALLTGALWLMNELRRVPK
UniProt Q9UBW8: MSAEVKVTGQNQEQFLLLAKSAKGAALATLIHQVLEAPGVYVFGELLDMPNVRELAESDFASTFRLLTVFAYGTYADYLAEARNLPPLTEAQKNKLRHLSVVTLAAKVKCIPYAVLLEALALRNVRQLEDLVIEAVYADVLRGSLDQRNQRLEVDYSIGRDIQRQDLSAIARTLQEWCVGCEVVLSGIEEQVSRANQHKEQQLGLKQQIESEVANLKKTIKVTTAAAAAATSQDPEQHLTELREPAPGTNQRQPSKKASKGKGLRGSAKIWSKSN
UniProt Q93034, whole entry: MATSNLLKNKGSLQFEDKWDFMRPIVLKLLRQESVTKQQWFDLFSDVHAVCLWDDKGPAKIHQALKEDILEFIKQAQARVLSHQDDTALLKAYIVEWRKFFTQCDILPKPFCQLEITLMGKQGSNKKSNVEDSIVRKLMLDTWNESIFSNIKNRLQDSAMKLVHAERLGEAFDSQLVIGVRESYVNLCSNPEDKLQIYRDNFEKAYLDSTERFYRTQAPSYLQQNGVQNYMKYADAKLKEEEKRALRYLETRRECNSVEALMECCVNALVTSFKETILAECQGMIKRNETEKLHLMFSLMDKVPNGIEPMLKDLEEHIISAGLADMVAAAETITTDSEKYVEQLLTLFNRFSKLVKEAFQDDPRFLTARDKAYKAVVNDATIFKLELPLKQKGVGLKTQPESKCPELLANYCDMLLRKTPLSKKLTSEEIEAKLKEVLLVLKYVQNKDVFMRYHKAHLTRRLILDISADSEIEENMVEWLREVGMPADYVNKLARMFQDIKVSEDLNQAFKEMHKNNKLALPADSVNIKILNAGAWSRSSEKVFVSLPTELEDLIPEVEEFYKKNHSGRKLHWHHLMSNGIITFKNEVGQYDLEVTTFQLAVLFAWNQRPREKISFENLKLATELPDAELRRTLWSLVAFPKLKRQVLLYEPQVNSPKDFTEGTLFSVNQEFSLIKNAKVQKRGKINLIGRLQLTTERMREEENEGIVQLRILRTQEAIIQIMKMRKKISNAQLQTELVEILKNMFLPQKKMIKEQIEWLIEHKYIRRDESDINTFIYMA
UniProt Q8IX18: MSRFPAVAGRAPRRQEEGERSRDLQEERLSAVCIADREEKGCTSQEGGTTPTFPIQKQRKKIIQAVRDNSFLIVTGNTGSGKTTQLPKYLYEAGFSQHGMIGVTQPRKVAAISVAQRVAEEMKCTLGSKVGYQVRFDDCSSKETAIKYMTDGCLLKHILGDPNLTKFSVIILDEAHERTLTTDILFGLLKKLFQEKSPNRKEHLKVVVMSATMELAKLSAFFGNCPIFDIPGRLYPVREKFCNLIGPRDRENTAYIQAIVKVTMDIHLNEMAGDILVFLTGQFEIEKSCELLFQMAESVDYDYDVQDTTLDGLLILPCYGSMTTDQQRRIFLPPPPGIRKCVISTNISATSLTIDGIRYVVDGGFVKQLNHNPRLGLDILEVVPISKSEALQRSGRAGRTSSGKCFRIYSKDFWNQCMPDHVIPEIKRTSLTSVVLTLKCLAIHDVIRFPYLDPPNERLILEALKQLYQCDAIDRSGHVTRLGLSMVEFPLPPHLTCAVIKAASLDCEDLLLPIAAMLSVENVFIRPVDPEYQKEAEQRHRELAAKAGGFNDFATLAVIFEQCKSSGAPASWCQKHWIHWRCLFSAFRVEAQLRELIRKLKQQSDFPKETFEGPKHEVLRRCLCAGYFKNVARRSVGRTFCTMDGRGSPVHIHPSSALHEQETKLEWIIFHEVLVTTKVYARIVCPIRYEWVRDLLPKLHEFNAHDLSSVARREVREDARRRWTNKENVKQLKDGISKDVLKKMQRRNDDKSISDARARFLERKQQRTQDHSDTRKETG
UniProt Q96SW2: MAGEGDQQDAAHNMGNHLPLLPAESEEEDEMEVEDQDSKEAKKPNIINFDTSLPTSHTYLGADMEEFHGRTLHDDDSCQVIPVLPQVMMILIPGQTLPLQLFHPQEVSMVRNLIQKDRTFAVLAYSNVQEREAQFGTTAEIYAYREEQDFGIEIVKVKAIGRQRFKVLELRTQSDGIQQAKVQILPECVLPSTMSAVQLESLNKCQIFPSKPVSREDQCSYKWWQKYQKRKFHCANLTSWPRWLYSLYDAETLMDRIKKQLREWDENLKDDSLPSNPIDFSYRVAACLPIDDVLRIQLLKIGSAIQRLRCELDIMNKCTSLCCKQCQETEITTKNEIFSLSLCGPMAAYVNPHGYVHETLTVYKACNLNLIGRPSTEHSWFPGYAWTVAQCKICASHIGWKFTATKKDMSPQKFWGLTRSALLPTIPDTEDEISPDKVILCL
UniProt Q15392: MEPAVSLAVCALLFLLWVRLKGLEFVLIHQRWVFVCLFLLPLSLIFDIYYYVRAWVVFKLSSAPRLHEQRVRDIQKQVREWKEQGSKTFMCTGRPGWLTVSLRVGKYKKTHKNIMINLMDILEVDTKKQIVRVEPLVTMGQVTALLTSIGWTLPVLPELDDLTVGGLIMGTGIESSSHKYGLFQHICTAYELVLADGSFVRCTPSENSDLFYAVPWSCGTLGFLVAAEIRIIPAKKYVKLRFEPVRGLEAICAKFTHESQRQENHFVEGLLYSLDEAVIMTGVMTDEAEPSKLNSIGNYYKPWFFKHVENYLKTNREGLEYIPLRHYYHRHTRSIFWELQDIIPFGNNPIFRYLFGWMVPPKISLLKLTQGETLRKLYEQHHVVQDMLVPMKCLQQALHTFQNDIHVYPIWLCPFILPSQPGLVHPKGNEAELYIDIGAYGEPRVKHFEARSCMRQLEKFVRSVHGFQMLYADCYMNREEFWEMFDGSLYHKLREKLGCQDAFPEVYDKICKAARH
UniProt Q92905, whole entry, looked up: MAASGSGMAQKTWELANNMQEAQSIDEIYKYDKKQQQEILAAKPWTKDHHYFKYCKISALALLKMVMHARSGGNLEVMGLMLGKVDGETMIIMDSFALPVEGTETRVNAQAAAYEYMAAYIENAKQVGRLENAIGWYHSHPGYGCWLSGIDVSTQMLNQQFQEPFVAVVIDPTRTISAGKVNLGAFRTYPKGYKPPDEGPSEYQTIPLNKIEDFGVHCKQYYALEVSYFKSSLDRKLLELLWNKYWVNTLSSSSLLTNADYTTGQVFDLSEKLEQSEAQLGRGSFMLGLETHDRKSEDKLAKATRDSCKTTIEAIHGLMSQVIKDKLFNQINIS
UniProt P46109: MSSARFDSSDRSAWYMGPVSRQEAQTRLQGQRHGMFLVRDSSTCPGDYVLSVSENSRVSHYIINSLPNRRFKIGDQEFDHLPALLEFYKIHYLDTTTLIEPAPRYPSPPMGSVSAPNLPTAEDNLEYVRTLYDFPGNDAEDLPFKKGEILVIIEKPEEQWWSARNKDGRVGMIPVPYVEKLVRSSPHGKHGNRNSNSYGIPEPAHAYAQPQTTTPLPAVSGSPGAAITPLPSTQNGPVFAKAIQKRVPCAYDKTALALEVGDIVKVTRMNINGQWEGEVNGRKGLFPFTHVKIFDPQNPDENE
UniProt Q7L576: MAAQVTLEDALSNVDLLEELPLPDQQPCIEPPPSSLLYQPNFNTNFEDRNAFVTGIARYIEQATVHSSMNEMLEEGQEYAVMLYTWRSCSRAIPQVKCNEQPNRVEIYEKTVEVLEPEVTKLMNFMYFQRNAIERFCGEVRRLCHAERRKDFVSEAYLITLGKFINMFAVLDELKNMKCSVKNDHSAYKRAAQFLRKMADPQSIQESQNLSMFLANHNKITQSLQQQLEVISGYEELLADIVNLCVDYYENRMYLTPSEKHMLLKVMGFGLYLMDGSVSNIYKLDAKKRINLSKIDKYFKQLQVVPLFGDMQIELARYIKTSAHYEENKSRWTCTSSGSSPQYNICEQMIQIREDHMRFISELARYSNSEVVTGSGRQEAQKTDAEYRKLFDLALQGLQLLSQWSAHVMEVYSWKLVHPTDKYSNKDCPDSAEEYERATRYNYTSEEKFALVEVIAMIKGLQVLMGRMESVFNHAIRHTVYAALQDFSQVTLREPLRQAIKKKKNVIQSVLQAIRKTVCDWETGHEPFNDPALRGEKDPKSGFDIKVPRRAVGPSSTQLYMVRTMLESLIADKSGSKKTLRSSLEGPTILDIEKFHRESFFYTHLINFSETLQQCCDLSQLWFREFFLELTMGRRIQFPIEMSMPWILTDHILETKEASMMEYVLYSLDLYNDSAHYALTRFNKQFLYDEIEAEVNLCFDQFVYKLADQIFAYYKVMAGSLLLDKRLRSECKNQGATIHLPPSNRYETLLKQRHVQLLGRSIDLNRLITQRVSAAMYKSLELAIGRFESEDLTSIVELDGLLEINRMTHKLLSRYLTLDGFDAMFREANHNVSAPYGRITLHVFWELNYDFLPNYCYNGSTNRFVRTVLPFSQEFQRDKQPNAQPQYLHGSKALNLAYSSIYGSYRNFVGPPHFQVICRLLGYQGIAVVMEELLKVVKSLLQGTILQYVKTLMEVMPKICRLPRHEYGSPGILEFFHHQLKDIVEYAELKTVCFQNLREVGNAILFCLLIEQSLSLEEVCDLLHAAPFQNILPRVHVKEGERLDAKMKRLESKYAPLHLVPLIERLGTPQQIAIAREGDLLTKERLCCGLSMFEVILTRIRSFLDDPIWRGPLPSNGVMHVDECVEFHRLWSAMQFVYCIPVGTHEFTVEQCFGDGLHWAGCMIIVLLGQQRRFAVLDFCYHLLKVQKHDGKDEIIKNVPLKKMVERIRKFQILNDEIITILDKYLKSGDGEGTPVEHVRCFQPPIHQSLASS
UniProt Q9NUI1: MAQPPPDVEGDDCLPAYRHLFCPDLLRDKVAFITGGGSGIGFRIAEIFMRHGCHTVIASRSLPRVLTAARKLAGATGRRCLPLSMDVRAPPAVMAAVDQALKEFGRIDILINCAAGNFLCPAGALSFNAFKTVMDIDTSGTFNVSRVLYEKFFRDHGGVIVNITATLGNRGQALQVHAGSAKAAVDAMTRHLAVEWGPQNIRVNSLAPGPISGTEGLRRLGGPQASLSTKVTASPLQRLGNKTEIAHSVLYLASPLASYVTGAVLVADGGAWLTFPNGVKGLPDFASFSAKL

Compound: COc1ccc(Cn2ccc3ccc(C(=O)NO)cc32)cc1
Experiment: dose-dependent thermal stabilisation call (2D-TPP, DLPTP, 10% FDR) (binary (1 = stabilised)); higher = stabilised by the compound
Details: system: HL-60 intact cells; concentration range 0.04-10 µM

Target	dose-dependent thermal stabilisation call
DHX8 (UniProt Q14562)	inactive: 0
DAD1 (UniProt P61803)	inactive: 0
DDX20 (UniProt Q9UHI6)	inactive: 0
DDB2 (UniProt Q92466)	inactive: 0
DIABLO (UniProt Q9NR28)	inactive: 0
CSNK1D (UniProt P48730)	inactive: 0
DACH1 (UniProt Q9UI36)	inactive: 0
CPT2 (UniProt P23786)	inactive: 0
CYBASC3 (UniProt Q8NBI2)	inactive: 0
DENND4A (UniProt Q7Z401)	inactive: 0
DBI (UniProt P07108)	inactive: 0
CTSA (UniProt P10619)	inactive: 0
CPSF6 (UniProt Q16630)	inactive: 0
CYTSA (UniProt Q69YQ0)	inactive: 0
COX15 (UniProt Q7KZN9)	inactive: 0
COPS7A (UniProt Q9UBW8)	inactive: 0
CTNNBL1 (UniProt Q8WYA6)	inactive: 0
COMMD7 (UniProt Q86VX2)	inactive: 0
COPS7B (UniProt Q9H9Q2)	inactive: 0

Target	dose-dependent thermal stabilisation call
CUL5 (UniProt Q93034)	inactive: 0
DHX40 (UniProt Q8IX18)	inactive: 0
CRBN (UniProt Q96SW2)	inactive: 0
DDX49 (UniProt Q9Y6V7)	inactive: 0
DHCR24 (UniProt Q15392)	inactive: 0
COPS5 (UniProt Q92905)	inactive: 0
CRKL (UniProt P46109)	inactive: 0
DHX35 (UniProt Q9H5Z1)	inactive: 0
COX2	inactive: 0
CTBP2 (UniProt P56545)	inactive: 0
COX7A2 (UniProt P14406)	inactive: 0
DHFR (UniProt P00374)	inactive: 0
DGKZ (UniProt Q13574)	inactive: 0
DGKE (UniProt P52429)	inactive: 0
CYB5R4 (UniProt Q7L1T6)	inactive: 0
CYFIP1 (UniProt Q7L576)	inactive: 0
DECR2 (UniProt Q9NUI1)	inactive: 0
DHX32 (UniProt Q7L7V1)	inactive: 0

Quoted at random: two records from the list, in no set order.
Target	dose-dependent thermal stabilisation call
CUL5 (UniProt Q93034)	inactive: 0
COX7A2 (UniProt P14406)	inactive: 0
